{"source": "PubChem BioAssay AID2685", "about": "(National Center for Advancing Translational Sciences (NCATS), 2010)", "note": "Hit rate of the full screen: of about 320,000 compounds, about 2,100 (0.66%) were called active. Inconclusive means that the source gave no clear call. Such entries were picked first, then a sample of the others. Calls follow the shape of the dose curve; as a rule, active = well fitted inhibition curve with a large enough effect in the signal ratio, with a control signal flat (not every such curve was filed as active); inconclusive = small, poorly fitted or top-dose-only effect, or effect the other way, or a change in a side signal; inactive = flat fitted curve, though single readings scatter; the % refers to the signal ratio. A potency beside an inconclusive call is a rough fit, not a confirmed value. % is scaled to controls: 0 for no effect and ±100 for the full control effect; potency is read from the fitted curve at half-maximal effect."}
{"test": "qHTS Assay for Lipid Storage Modulators in Drosophila S3 Cells", "conditions": "BODIPY lipid droplet fluorescence, 18-24 h, cells fed with added oleic acid; lipid storage change, negative = inhibition: at 46.1 µM (top of the series) unless noted", "how_it_was_run": "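Drosophila S3 cells loaded with oleic acid (400 uM, as added) and compounds at several concentrations; lipid droplets imaged by 488-nm laser-scanning cytometry, 500–530 nm intensity and object ratio to cell channel. Percent activity normalized to 20 uM Triacsin C.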"}
{"smiles": "Cn1c(N)c(S(=O)(=O)N2CCCC2)c(=O)n(C)c1=O", "lipid storage change, negative = inhibition": "inconclusive: 11.1%"}
{"smiles": "COc1ccc(C(CNC(=O)c2cc3ccccc3o2)N2CCCC2)cc1", "note": "(configuration not stated)", "lipid storage change, negative = inhibition": "inconclusive: -22.3%"}
{"smiles": "Cc1ccc(NC(=O)CC2CCCC2)c(Br)c1", "lipid storage change, negative = inhibition": "inconclusive: -74.1%"}
{"smiles": "COc1ccc(OCCn2c(=O)sc3ccccc32)cc1", "lipid storage change, negative = inhibition": "inconclusive: 7.62%"}
{"smiles": "O=[N+]([O-])c1cccc2cn[nH]c12", "Potency": "inconclusive: 29.1 µM [activator, single point]"}
{"smiles": "NC(=O)c1ccccc1NC(=O)Nc1ccccc1Cl", "lipid storage change, negative = inhibition": "inconclusive: -15.8%"}
{"smiles": "Cn1ccnc1Sc1cc(Cl)ccc1[N+](=O)[O-]", "lipid storage change, negative = inhibition": "inconclusive: 2.66%"}
{"smiles": "C#CC(CC)(CC)NC(=O)c1nn(-c2ccccc2Cl)c(C)cc1=O", "lipid storage change, negative = inhibition": "inconclusive: -27.6%"}
{"smiles": "COc1ccc2o/c(=N\\O)c(C(=O)Nc3ccc(C)cc3)cc2c1", "lipid storage change, negative = inhibition": "inconclusive: -72.9%"}
{"smiles": "CCCOc1cc(CN2CCCCC2)cc(C(C)=O)c1", "lipid storage change, negative = inhibition": "inconclusive: 0.0212%"}
{"smiles": "Cc1ccc(CN2C(=O)C3CCCN3c3ncccc32)cc1", "note": "(configuration not stated)", "lipid storage change, negative = inhibition": "inconclusive: 4.85%"}
{"smiles": "CCOC(=O)Cn1c(=O)n(Cc2ccco2)c(=O)c2ccc(C(=O)NCCc3ccccc3)cc21", "lipid storage change, negative = inhibition": "inconclusive: -12%"}
{"smiles": "COc1ccccc1OCC(O)CN1CCN(CC(=O)Nc2c(C)cccc2C)CC1", "note": "(configuration not stated)", "lipid storage change, negative = inhibition": "inconclusive: 14.1%"}
{"smiles": "O=[N+]([O-])c1ccc(/C=C/c2nc3ccc([N+](=O)[O-])cc3[nH]2)cc1", "Potency": "inconclusive: 10.3 µM [activator, partial curve, poor fit]"}
{"smiles": "CN(C)S(=O)(=O)c1ccc(C(=O)Nc2nnc(SCc3cccc(F)c3)s2)cc1", "lipid storage change, negative = inhibition": "inconclusive: 124%"}
{"smiles": "CC(=O)NC(CC(=O)Nc1ccc(S(=O)(=O)Nc2nccs2)cc1)c1ccccc1", "note": "(configuration not stated)", "lipid storage change, negative = inhibition": "inconclusive"}
{"smiles": "CC(=O)N1CCN(C(=O)CNc2cc(C(F)(F)F)ccc2OCC(F)(F)F)CC1", "lipid storage change, negative = inhibition": "inconclusive: 11.1%"}
{"smiles": "Cc1ccc(NC(=O)C(C)c2cccc(C(=O)c3ccccc3)c2)cc1O", "note": "(configuration not stated)", "lipid storage change, negative = inhibition": "inconclusive: -13.5%"}
{"smiles": "CCOC(=O)Cn1nnnc1C(CC)N(Cc1cccs1)Cc1cc2ccc(OC)cc2[nH]c1=O", "note": "(configuration not stated)", "Potency": "inconclusive: 16.4 µM [falling, single point]"}
{"smiles": "Cc1cnc(NC(=O)CSc2nnc(COc3ccccc3)o2)s1", "lipid storage change, negative = inhibition": "inconclusive: -1.74%"}
{"smiles": "COc1ccc(S(=O)(=O)Nc2cccc(-c3ccc(N4CCCCCC4)nn3)c2)c(OC)c1", "Potency": "inconclusive: 0.184 µM [falling, full curve, poor fit]"}
{"smiles": "CCOC(=O)CC(N)c1ccc2c(c1)OCO2", "note": "(configuration not stated)", "lipid storage change, negative = inhibition": "inconclusive: 14.4%"}
{"smiles": "CNC[C@H](NC[C@@H](NCCCc1ccccc1)c1ccccc1)[C@H](C)O", "lipid storage change, negative = inhibition": "inconclusive: 13%"}
{"smiles": "O=C(c1cc(-c2cccnc2)nc2ccc(Br)cc12)N1CCN(c2ncccn2)CC1", "lipid storage change, negative = inhibition": "inconclusive: 41.7%"}
{"smiles": "COc1ccc(OC)c(NC(=O)COC(=O)c2n[nH]c3ccccc23)c1", "lipid storage change, negative = inhibition": "inconclusive: 5.1%"}
{"smiles": "CCN(C(=O)COC(=O)c1ccccc1Cc1ccccc1)C1CCS(=O)(=O)C1", "note": "(configuration not stated)", "lipid storage change, negative = inhibition": "inconclusive: 65.3%"}
{"smiles": "Cc1ccc(O)c(/C=N/NC(=O)Cc2ccc(Cl)cc2)c1", "lipid storage change, negative = inhibition": "inconclusive: -15.4%"}
{"smiles": "O=C1c2ccccc2C(=O)N1CCCCn1c(=O)oc2ccccc21", "lipid storage change, negative = inhibition": "inconclusive: -53.5%"}
{"smiles": "O=C(Nc1ccc2c3c(cccc13)CC2)c1cccc([N+](=O)[O-])c1", "lipid storage change, negative = inhibition": "inconclusive: 5.64%"}
{"smiles": "CCOc1ccccc1C(=O)Nc1nnc(C(C)C)s1", "Potency": "inconclusive: 29.1 µM [rising, single point]"}
{"smiles": "CC(=O)c1ccc(OCc2cc(C(=O)N3CCN4CCCC4C3)no2)cc1", "note": "(configuration not stated)", "Potency": "inconclusive: 14.1 µM [activator, single point]"}
{"smiles": "COc1ccccc1CNC(=O)COC(=O)c1cccc(-n2cnnn2)c1", "Potency": "inconclusive: 6.51 µM [falling, full curve, poor fit]"}
{"smiles": "Cc1ccc(N2C(=O)CS(=O)C(c3ccccc3)C2=O)cc1C", "note": "(configuration not stated)", "Potency": "inconclusive: 6.51 µM [falling, single point]"}
{"smiles": "CCCOc1ccccc1N1C(=O)CC(N(O)c2ccccc2)C1=O", "note": "(configuration not stated)", "lipid storage change, negative = inhibition": "inconclusive: 0.389%"}
{"smiles": "O=S(=O)(O)c1cc2oc(-c3ccccc3)nc2c2ccccc12", "lipid storage change, negative = inhibition": "inconclusive: 12.4%"}
{"smiles": "CCOc1ccc(CCNC(=O)CSc2nnnn2C)cc1OCC", "lipid storage change, negative = inhibition": "inconclusive: 5.9%"}
{"smiles": "Cc1nc(C(=O)O)cc2c1[nH]c1ccccc12", "lipid storage change, negative = inhibition": "inconclusive: 18.4%"}
{"smiles": "CC(C)CC1NC(=O)N(CCCCN2C(=O)c3ccccc3C2=O)C1=O", "note": "(configuration not stated)", "lipid storage change, negative = inhibition": "inconclusive: -20%"}
{"smiles": "CCC(=O)Nc1cc2c(cc1C(=O)CC)OCCO2", "lipid storage change, negative = inhibition": "inconclusive: 14.8% [at 9.22 µM]"}
{"smiles": "CCCCn1c(CN2C(=O)c3ccccc3C2=O)nc2ccccc2c1=O", "lipid storage change, negative = inhibition": "inconclusive: 42.6%"}
{"smiles": "CCOC(=O)CCn1cnc2ccc([N+](=O)[O-])cc2c1=O", "lipid storage change, negative = inhibition": "inconclusive: 40.1%"}
{"smiles": "COC(=O)CNC(=O)CSc1nc2c(sc(=S)n2-c2ccccc2)c(=O)[nH]1", "lipid storage change, negative = inhibition": "inconclusive: 21.9%"}
{"smiles": "CC(C)(C)NS(=O)(=O)c1ccc(NC(=S)NC(=O)C2CC2)cc1", "lipid storage change, negative = inhibition": "inconclusive: -23.3%"}
{"smiles": "O=C(O)c1cccc(NC(=S)NC(=O)c2ccncc2)c1", "lipid storage change, negative = inhibition": "inconclusive: -2.35%"}
{"smiles": "O=C(c1ccccc1Cl)N(Cc1ccccc1F)N1C(=O)CCCC1=O", "lipid storage change, negative = inhibition": "inconclusive: -36.7%"}
{"smiles": "Cn1c(=O)c2c(nc(N3CCNCC3)n2Cc2cccc3ccccc23)n(C)c1=O", "lipid storage change, negative = inhibition": "inconclusive: -23.4%"}
{"smiles": "CCCc1nc(NC(C)=O)c(C#N)c(-c2ccco2)c1CC", "lipid storage change, negative = inhibition": "inconclusive: 49.1%"}
{"smiles": "C=CCNC(=O)/C=C/c1c(F)cccc1Cl", "Potency": "inconclusive: 5.8 µM [activator, single point]"}
{"smiles": "Cc1ccc(C)c(N2CCN(C(=O)CCS(=O)(=O)c3ccc4c(c3)CCN4C(=O)C3CC3)CC2)c1", "lipid storage change, negative = inhibition": "inconclusive: -28.7%"}
{"smiles": "CCCCc1nc2cc(C(=O)N3CCCCC3CCO)ccc2o1", "note": "(configuration not stated)", "lipid storage change, negative = inhibition": "inconclusive: 23.6%"}
{"smiles": "Cc1ccn(CCSCC(=O)O)n1", "lipid storage change, negative = inhibition": "inconclusive: 0.26%"}
{"smiles": "Cc1nc(Cl)sc1C(=O)Nc1ccc(C(F)(F)F)cc1", "Potency": "active: 1.64 µM"}
{"smiles": "COc1ccccc1N=NC1=C(O)CC(C)(C)CC1=O", "Potency": "inconclusive: 2.06 µM [activator, full curve, poor fit]"}
{"smiles": "Cc1csc(NC(=O)c2cccs2)n1", "Potency": "inconclusive: 6.51 µM [falling, single point]"}
{"smiles": "CCCS(=O)(=O)N1CCN(Cc2c[nH]c3ccccc23)CC1", "lipid storage change, negative = inhibition": "inconclusive: -0.115%"}
{"smiles": "Cc1ccc(NCc2nnc(SCC(=O)Nc3ncc(C)s3)n2Cc2ccco2)c(C)c1", "Potency": "inconclusive: 29.1 µM [cytotoxic, single point]"}
{"smiles": "O=C(NC1CCCCC1)C(c1c(F)cccc1Cl)N(C(=O)c1csnn1)C1CC1", "note": "(configuration not stated)", "Potency": "inconclusive: 18.4 µM [falling, partial curve, poor fit]"}
{"smiles": "COc1ccc(C(C)NC(=O)C2C(=O)NC3(C)CC2c2ccccc2O3)cc1", "note": "(configuration not stated)", "lipid storage change, negative = inhibition": "inactive"}
{"smiles": "CCOc1ccc2c(c1)[nH]c(=S)n2C", "lipid storage change, negative = inhibition": "inconclusive: 14%"}
{"smiles": "CCOCC(=O)N1CCCC(C(=O)OCC)C1", "note": "(configuration not stated)", "Potency": "active: 18.4 µM"}
{"smiles": "O=C(Nc1ccccc1C(=O)N1CCOCC1)C1CCCO1", "note": "(configuration not stated)", "Potency": "inconclusive: 29.1 µM [falling, single point]"}
{"smiles": "COC(=O)c1cc(NS(=O)(=O)c2ccc(N3CCOCC3)c([N+](=O)[O-])c2)cc(C(=O)OC)c1", "lipid storage change, negative = inhibition": "inconclusive: -13.7%"}
{"smiles": "COc1cccc(CN2CC(C(=O)N3CCCO3)CCC2=O)c1", "note": "(configuration not stated)", "lipid storage change, negative = inhibition": "inconclusive: 52.9%"}
{"smiles": "CC1=NNC(=O)C1CCC(=O)N/N=C(\\C)c1ccccc1", "note": "(configuration not stated)", "lipid storage change, negative = inhibition": "inconclusive: 6.28%"}
{"smiles": "CSc1ccc(CCNC(=O)c2ccc(CS(=O)Cc3ccc(Cl)cc3)o2)cc1", "note": "(configuration not stated)", "Potency": "inconclusive: 2.91 µM [falling, full curve, poor fit]"}
{"smiles": "COc1cc(C(C#N)N2CCC(c3ccccc3)=N2)ccc1O", "note": "(configuration not stated)", "Potency": "inconclusive: 13 µM [activator, partial curve]"}
{"smiles": "CN1C(=O)C(C)(C)c2cc(S(=O)(=O)NCC3CCC(C(=O)NCc4ccc(F)cc4)CC3)ccc21", "note": "(configuration not stated)", "lipid storage change, negative = inhibition": "inconclusive: 22.4%"}
{"smiles": "Cc1oc(/C=N/NC(=O)CN(c2ccccc2Cl)S(C)(=O)=O)cc1Br", "lipid storage change, negative = inhibition": "inconclusive: 5.73%"}
{"smiles": "O=C1CCCCCC1C1(O)C(=O)Nc2ccccc21", "note": "(configuration not stated)", "lipid storage change, negative = inhibition": "inconclusive: -17.7%"}
{"smiles": "CC(Sc1nnc(-c2cccnc2)n1N)C(=O)Nc1ccc2c(c1)OCCO2", "note": "(configuration not stated)", "lipid storage change, negative = inhibition": "inconclusive"}
{"smiles": "Cc1ccc(N(C)S(=O)(=O)c2ccc(-c3ccc(=O)[nH]n3)s2)cc1C", "Potency": "inconclusive: 3.26 µM [activator, partial curve, poor fit]"}
{"smiles": "O=C(NCCn1cc(SCc2ccccc2)c2ccccc21)c1ccccc1F", "lipid storage change, negative = inhibition": "inconclusive: -2.17%"}
{"smiles": "Clc1ccc2c(c1)nc1n2CCCC1", "lipid storage change, negative = inhibition": "inconclusive: 17.9%"}
{"smiles": "CCC1(O)CC(C(=O)OC)=NN1C(=O)c1ccccc1", "note": "(configuration not stated)", "lipid storage change, negative = inhibition": "inconclusive: 4.81%"}
{"smiles": "CSc1nc(N(C)NC(=O)c2ccc(F)cc2)c2ccccc2n1", "lipid storage change, negative = inhibition": "inconclusive: 12.1%"}
{"smiles": "O=C(Cc1nn[nH]n1)Nc1cc(Cl)cc(Cl)c1", "lipid storage change, negative = inhibition": "inconclusive: 18%"}
{"smiles": "O=C(CCC(=O)N/N=C/c1c[nH]c2ccccc12)NCc1ccccc1", "lipid storage change, negative = inhibition": "inconclusive: 15%"}
{"smiles": "O=C(Nc1ccc(F)cc1F)c1sccc1SCc1cccc(C(F)(F)F)c1", "lipid storage change, negative = inhibition": "inconclusive: 34.7%"}
{"smiles": "CN(C)c1ccc(C(CNS(=O)(=O)c2ccc([N+](=O)[O-])cc2)N2CCCC2)cc1", "note": "(configuration not stated)", "lipid storage change, negative = inhibition": "inconclusive"}
{"smiles": "CC(=O)Nc1nnc(SCC(=O)N2C(C)CCCC2C)s1", "note": "(configuration not stated)", "lipid storage change, negative = inhibition": "inconclusive: 82.5%"}
{"smiles": "Cc1nc(N2CCN(Cc3ccc4c(c3)OCO4)CC2)c2cc(-c3ccccc3)sc2n1", "lipid storage change, negative = inhibition": "inconclusive: -3.08%"}
{"smiles": "CCOc1ccccc1N1CCN(S(=O)(=O)c2ccc(F)c(F)c2)CC1", "lipid storage change, negative = inhibition": "inconclusive: 13.5%"}
